# Structures can show the parent of a compound that is named as a salt. The list shows a part of the results. Many values rest on one well or one pass, so single values are uncertain.
# Tested on: Saos-2
# Assay: cell viability (CCK-8) relative to DMSO control (% of control); higher = less cytotoxic
# Details: 10 µM; 48 h
row,SMILES,cell viability
1,CC(=O)[C@]1(O)Cc2c(O)c3c(c(O)c2[C@@H](O[C@H]2C[C@H](N)[C@H](O)[C@H](C)O2)C1)C(=O)c1ccccc1C3=O [Idarubicin . Hydrochloride],19.2
2,Nc1c2c(nc3ccccc13)CCCC2 [Tacrine·HCl],54.7
3,Cc1onc(-c2ccccc2Cl)c1C(=O)N[C@@H]1C(=O)N2[C@@H]1SC(C)(C)[C@@H]2C(=O)O [Cloxacillin·Na],107
4,Nc1nc(Cl)nc2c1ncn2[C@@H]1O[C@H](CO)[C@@H](O)[C@@H]1F [Clofarabine],40.7
5,CN(C)c1cc(NC(=O)CNC(C)(C)C)c(O)c2c1C[C@H]1C[C@H]3[C@H](N(C)C)C(O)=C(C(N)=O)C(=O)[C@@]3(O)C(O)=C1C2=O [Tigecycline],107
6,CN1CCN2c3ncccc3Cc3ccccc3C2C1 (stereo unspecified) [Mirtazapine],103
7,CC(=O)Oc1cc2c(s1)CCN(C(C(=O)C1CC1)c1ccccc1F)C2 (stereo unspecified) [Prasugrel],106
8,C=C[C@H]1CN2CC[C@H]1C[C@@H]2[C@@H](O)c1ccnc2ccc(OC)cc12 [Quinidine hydrochloride monohydrate],112
9,Cc1ccc(O)c([C@H](CCN(C(C)C)C(C)C)c2ccccc2)c1 [Tolterodine Tartrate],101
10,N=C(N)N [Guanidine·HCl],111
11,Nc1ccn([C@@H]2CS[C@H](CO)O2)c(=O)n1 [Lamivudine],115

# Some of the entries so far, tab-delimited.
row	SMILES	cell viability
7	CC(=O)Oc1cc2c(s1)CCN(C(C(=O)C1CC1)c1ccccc1F)C2 (stereo unspecified) [Prasugrel]	106
10	N=C(N)N [Guanidine·HCl]	111

# — the supplement of paper PMC9433722
